Measurements as given in publication doi:10.1101/2020.09.11.292599.
These are yes or no findings as the source states them, for the method shown. In cells and extracts the contact can be indirect. These calls come from enrichment with a bait or labelling near it, and not all partners need be listed.

Chains of the proteins cited; added tags and fusions are not shown.
UniProt Q55247: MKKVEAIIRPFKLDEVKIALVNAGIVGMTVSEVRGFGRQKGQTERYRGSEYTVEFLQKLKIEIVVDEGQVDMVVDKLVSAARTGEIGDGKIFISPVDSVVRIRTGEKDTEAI

Biological target: T1, PirC-mCitrine (Synechocystis sp. PCC 6803) (UniProt P77971)
T1 sequence: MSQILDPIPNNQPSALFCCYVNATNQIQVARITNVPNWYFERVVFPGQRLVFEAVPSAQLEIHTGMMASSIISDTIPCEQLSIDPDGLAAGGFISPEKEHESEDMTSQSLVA
Test: affinity purification with mass spectrometry

binding: binds
Substance: PII (endogenous) (from UniProt Q55247 1-112)
